{
  "source": "patent US7906105B1",
  "about": "“Zinc-activated contrast agents” (Northwestern University, priority 2006, dated 2011)",
  "key": {"[1]": {"experiment": "Nuclear magnetic relaxation dispersion (NMRD) profiles", "assay_type": "physicochemical"}, "[2]": {"experiment": "Relaxivity measurements in the absence and presence of ZnCl2", "assay_type": "physicochemical", "protocol": "Left: Relaxivity of Compound 1 in the presence of XCl2, where X=Zn, Ca, and Mg. All solutions were made in 100 mM KCl/100 mM HEPES at ph=7.4. Right: Relaxivity of Zn-1, 3:1 (Zn:Gd), following titration of EDTA.\nTo test the binding ability of the acetate ligands to Zn(II), relaxivity measurements of 1 were measured in the absence and presence of ZnCl2. The relaxitivity of 1 in HEPES buffer without zinc was 2.34 mM^−1 s^−1, as is typical for small molecule contrast agents for which q=0 (8). […] As ZnCl2 was added, the relaxivity increased to 5.3 mM^−1 s^−1 indicative of a q=1 complex (See FIG. 3, left). Similar studies were conducted using MgCl2 and CaCl2 to test for selectivity of the ligand for zinc over other dications known to have higher cellular concentrations and which have similar binding affinities for carboxylic acids. […] A competitive binding assay gave a dissociation constant of 2.38×10^−4 M for the Gd(III)-Zn(II) complex.\nAfter 1 was left to equilibrate at 37° C. for 3 days with an excess of zinc, a relaxivity of 9.2 mM^−1 s^−1 was measured, indicating the species has a value of q=2. This measurement corresponds well to a structure proposed by embodiments of the present invention in which the pendant ligands have left the gadolinium for the zinc, leaving two open coordination sites for water to bind. […] Although an understanding of the mechanism is not necessary to practice the present invention and the present invention is not limited to any particular mechanism of action, in some embodiments, this is due to sequestration of Zn(II) by EDTA which leaves the carboxylic acids available to bind to Gd(III) and close the coordination sites (See FIG. 3, right). Adding excess EDTA had no effect on the relaxivity, providing that the Gd(III) ions are not sequestered by EDTA as expected given the high binding constant (˜10^16) for Gd-EDTA for which q=1.\nProton relaxivity measurements on Compound 1 were also performed while titrating with increasing amounts of Zn(II) up to 1:1.4 (Gd: Zn) equivalents. […]"}},
  "data": [
    {"smiles": "Cc1cccc(OCCCN2CCN(CC(=O)[O-])CCN(CC(=O)[O-])CCN(CC(=O)[O-])CC2)c1N(CC(=O)[O-])CC(=O)[O-].[Gd+3]", "note": "[Compound 1]", "values": [
      {"measurement": "coordinated water q", "setting": "[1]; Zn(II)-coordinated complex, SBM theory", "result": "1.2±0.3"},
      {"measurement": "fraction of coordinated water q (upper limit)", "setting": "[1]; absence of Zn(II), water protons at ~3.1 Å", "result": "≤ 0.3±0.2"},
      {"measurement": "q (number of bound water molecules) indicated by relaxivity", "setting": "[2]; 37° C., 3 days, excess of zinc", "result": 2},
      {"measurement": "q (number of bound water molecules) indicated by relaxivity", "setting": "[2]; ZnCl2 added", "result": 1},
      {"measurement": "Zn(II) equivalents at which relaxation rate enhancement plateaus", "setting": "[2]; titration with Zn(II) up to 1:1.4 (Gd:Zn)", "result": "1.2-1.4 equivalents"}
    ]}
  ]
}
